PubChem BioAssay AID1259425 | University of Nebraska Medical Center – 2018

- Aim: 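Seek colon cancer weak points whose silencing resembles KSR1 loss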 (primary screen)
- System: HCT116 human colon cancer cells
- Knock-down reagent: siRNA pool against human genes, 50 nM siRNA
- Measurement: 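After 50 nM siRNA pool, branched-DNA assay measures six marker transcripts per well, minus blank, normalised to the geometric mean of two housekeeping transcripts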
- Scale: BNIP3L mRNA: higher = more BNIP3L transcript after knockdown
This is a random part of about 14,000 reagents. Not all columns of the deposit are shown. No sequences are given here. The record does not give: the time to read-out.

FA2H (fatty acid 2-hydroxylase): BNIP3L mRNA, set 1 = 0.0827
RPL12 (ribosomal protein L12): BNIP3L mRNA, set 1 = 0.139
RTL8A (retrotransposon Gag like 8A): BNIP3L mRNA, set 1 = 0.27
C1orf21 (chromosome 1 open reading frame 21): BNIP3L mRNA, set 1 = 0.129
KRT1 (keratin 1): BNIP3L mRNA, set 1 = 0.113
RALY (RALY heterogeneous nuclear ribonucleoprotein): BNIP3L mRNA, set 1 = 0.209
FAM114A2 (family with sequence similarity 114 member A2): BNIP3L mRNA, set 1 = 0.129
ADA (adenosine deaminase): BNIP3L mRNA, set 1 = 0.0968
ASIC2 (acid sensing ion channel subunit 2): BNIP3L mRNA, set 1 = 0.064
RPF1 (ribosome production factor 1 homolog): BNIP3L mRNA, set 1 = 0.0808
ALAS2 (5'-aminolevulinate synthase 2): BNIP3L mRNA, set 1 = 0.0855
UNK (unk zinc finger): BNIP3L mRNA, set 1 = 0.1
CTNNB1 (catenin beta 1): BNIP3L mRNA, set 1 = 0.0498
SLC6A7: BNIP3L mRNA, set 1 = 0.0832
DISC1 (DISC1 scaffold protein): BNIP3L mRNA, set 1 = 0.0726
GPRIN2 (G protein regulated inducer of neurite outgrowth 2): BNIP3L mRNA, set 1 = 0.0932
GANAB (glucosidase II alpha subunit): BNIP3L mRNA, set 1 = 0.0929
IDE (insulin degrading enzyme): BNIP3L mRNA, set 1 = 0.0989
TMEM11 (transmembrane protein 11): BNIP3L mRNA, set 1 = 0.141
MAMLD1 (mastermind like domain containing 1): BNIP3L mRNA, set 1 = 0.0917
ABO: BNIP3L mRNA, set 1 = 0.108
TDRD7 (tudor domain containing 7): BNIP3L mRNA, set 1 = 0.21
PADI2 (peptidyl arginine deiminase 2): BNIP3L mRNA, set 1 = 0.21
WAS (WASP actin nucleation promoting factor): BNIP3L mRNA, set 1 = 0.12
HS1BP3 (HCLS1 binding protein 3): BNIP3L mRNA, set 1 = 0.168
TMED1 (transmembrane p24 trafficking protein 1): BNIP3L mRNA, set 1 = 0.0888
ATPAF1 (ATP synthase mitochondrial F1 complex assembly factor 1): BNIP3L mRNA, set 1 = 0.127
NCOA3 (nuclear receptor coactivator 3): BNIP3L mRNA, set 1 = 0.118

Sorted by “BNIP3L mRNA, set 1” (ascending): 5 of the entries above
ADA (adenosine deaminase): BNIP3L mRNA, set 1 = 0.0968
KRT1 (keratin 1): BNIP3L mRNA, set 1 = 0.113
C1orf21 (chromosome 1 open reading frame 21): BNIP3L mRNA, set 1 = 0.129
FAM114A2 (family with sequence similarity 114 member A2): BNIP3L mRNA, set 1 = 0.129
RALY (RALY heterogeneous nuclear ribonucleoprotein): BNIP3L mRNA, set 1 = 0.209
